{
  "source": "paper PMC7425896",
  "about": "(2020)",
  "target": "α-Synuclein fibrils (preformed fibrils of recombinant human wild-type αSyn) (human, UniProt P37840 1-140)",
  "assay": "ATTO488-labelled",
  "data": [
    {"binder": "Hsc70 SBD-lid (α-helical sub-domain of the Substrate Binding Domain) (domain or fragment, ATTO488 (aminoreactive dye) on primary amines; 0.05 to 0.08 dye molecules incorporated on average) LSKEDIERMVQEAEKYKAEDEKQRDKVSSKNSLESYAFNMKATVEDEKLQGKINDEDKQKILDKCNEIINWLDKNQTAEKEEFEHQQKELEKVCNPIITKLYQSAGGMPGGMPGGFPGGGAPPSGGASSGPTIEEVD", "values": [
      {"measurement": "Kd", "result": 450, "unit": "nM"}
    ]}
  ]
}
